Experimental findings from patent EP4484445A1 are described below.

These are yes or no findings as the source states them, for the method shown. Binding can be weak; no strength is given.

For test [1], the target named is HCMV Trimer complex (gH/gL/gO) (Human Cytomegalovirus, strain TR). Nature of the test: binding analysis (ELISA on coated protein).
Test [2] has the same target. Nature of the test: binding analysis of isolated mAbs (ELISA on coated protein). Background: ELISA stands for enzyme-linked immunosorbent assay.

B1: CS2it1p2_F7K (antibody, V domains shown)
VH: QVQLVQSGAEVKKPGASVRVSCKVSGYTLTDLSIHWVRQAPGKGLEWMGGFDPEHGEIMYAQKFQGRVTVTEDTSTHTTYMEVNSLRSEDTAVYYCATDSSIAMTGTYFSDLFALDVWGQGTTVIVSS
VL: DIQMTQSPSSLSASVGDRVTITCRASQTINTNLNWYQQKPGKAPRLLIFGTFSLKSGVPSRFSGGGSGTDFTLTISSLQPEDFAAYFCQQSHSPPHTFGQGTKLELK
With B1, the binding result in test [1] and in test [2] was “binds” throughout.
